According to PubChem BioAssay AID1439 (NMMLSC, 2008):
Hit rate of the full screen: of about 220,000 compounds, about 770 (0.35%) were called active. This list was built around the results that the source calls inconclusive (neither active nor inactive); the mix of calls is not that of the screen. No stated cut-off is given here; in the data, active means binding response below about 49% or above about 150%; inconclusive means no clear call, values can overlap the other calls; inactive means in between.

The chains behind the UniProt entries cited, without tags or fusion partners.
UniProt P09471, whole entry, looked up: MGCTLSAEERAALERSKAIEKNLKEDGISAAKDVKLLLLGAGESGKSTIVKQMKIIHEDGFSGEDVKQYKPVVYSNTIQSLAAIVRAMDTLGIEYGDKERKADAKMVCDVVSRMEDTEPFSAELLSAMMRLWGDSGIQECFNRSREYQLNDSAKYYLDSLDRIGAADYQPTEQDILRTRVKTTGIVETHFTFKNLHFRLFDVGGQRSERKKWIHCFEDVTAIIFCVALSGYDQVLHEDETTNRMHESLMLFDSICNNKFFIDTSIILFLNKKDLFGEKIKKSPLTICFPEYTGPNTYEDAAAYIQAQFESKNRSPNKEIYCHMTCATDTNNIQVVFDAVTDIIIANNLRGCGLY

Biological target: Guanine nucleotide-binding protein G(o) subunit alpha (Homo sapiens) (UniProt P09471)
Experiment: RGS7-Galphao binding modulators, primary screen, biochemical, multiplexed bead flow cytometry (AID 1439);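 further: fluorescent Galphao held in activated GDP-AlF4 state binding bead-coupled RGS7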
Settings: at 10 µM, actives lie on both sides

SMILES | binding response (% of control)
COc1ccc(CN(C)C2c3ccccc3-c3ccccc32)cc1 | inactive: 109%
C=CCCCCCCCCc1nc(SCC(=O)O)n[nH]1 | inconclusive: 61.7%
Cc1ccc(-c2cc(C(F)(F)F)n3nc(C(=O)NCCCn4ccnc4)cc3n2)cc1C | inactive: 117%
O=C(CSc1cccc[n+]1[O-])c1ccccc1Br | inconclusive: 103%
CS(=O)(=O)N1CC2CCCN2c2ccc(C(F)(F)F)cc21 (stereo unspecified) | inconclusive: 120%
Cc1nn(CC(=O)NCc2cc3ccccc3[nH]2)c(C)c1[N+](=O)[O-] | inactive: 102%
Oc1cc2ccccc2nc1-c1ccccc1Cl | inconclusive: 208%
CCOC(=O)C1CCCN(C(=O)c2cc(-c3ccc(C)cc3)nc3ccccc23)C1 (stereo unspecified) | inconclusive: 109%
COc1ccc(Cn2c(=O)[nH]c3cc(C(=O)NC4CCCC4)ccc3c2=O)cc1 | inconclusive: 108%
CN(C)C(=S)NC(=O)c1cccc(Cl)c1 | inconclusive: 110%
O=C(/C(=C/c1cccnc1)n1ccnc1)c1ccc(Cl)cc1Cl | inconclusive: 116%
CCCCNC(=O)Nc1nnc(-c2ccc(Cl)cc2)o1 | inactive: 98.3%
O=C(CCl)Nc1cccc(CP(=O)(c2ccccc2)c2ccccc2)c1 | inconclusive: 80.5%
COc1ccc(Nc2cc(C)nc(NCc3ccccc3)n2)cc1 | inconclusive: 72.1%
O=C(Nc1nc(-c2ccncc2)cs1)c1ccc(F)cc1 | inconclusive: 112%
Clc1cccc(-c2cc3nc4c(c(N5CCOCC5)n3n2)CCCC4)c1 | inactive: 99.7%
CCOC(=O)c1ccc(NC(=O)N2CC(C)OC(C)C2)cc1 (stereo unspecified) | inconclusive: 52.8%
O=c1c2sc(-c3ccccc3)cc2nc2n1CCCCC2 | inconclusive: 271%
Cc1cc2c(cc1C)-c1nnc(-c3ccc4ccccc4n3)n1C(C)(C)C2 | inactive: 94.1%
Cc1nc2ccc(NC(=O)NC(=O)c3c(Cl)cccc3Cl)cc2o1 | inconclusive: 47.8%
CN1CC(=O)N(CCOc2ccccc2)C1=O | inactive: 99%
COc1ccc(-c2noc(-c3ccccc3C(=O)NCC3CCCO3)n2)cc1 (stereo unspecified) | inconclusive: 200%
CN(C)S(=O)(=O)c1cc(C(=O)NCc2ccccc2)c(Cl)cc1Cl | inactive: 104%
COc1cccc(-c2csc(NNC(=O)c3cccs3)n2)c1 | inconclusive: 99.3%

SMILES | binding response (% of control)
CN(C)c1ccc(S(=O)(=O)N2CCCCC2)cc1NC(=O)COc1ccccc1F | inconclusive: 107%
COc1cc(/C=C2\SC(=Nc3ccc(O)cc3)NC2=O)cc(OC)c1OC | inconclusive: 86.5%
Cc1ccc(SCC(=O)NN=C2CCN(C)CC2)cc1 | inconclusive: 112%
Cc1cc2nc3c(=O)n(CCc4ccccc4)c(=O)[nH]c3nc2cc1N | inconclusive: 110%
Cc1cc(C)n2nc(CC(=O)NCc3ccccc3Cl)nc2n1 | inactive: 102%
Cc1cccc(N2CC(C(=O)OCc3ccc([N+](=O)[O-])cc3)CC2=O)c1 (stereo unspecified) | inconclusive: 108%
CC(=O)Nc1ccc(/C=C/c2ccc3c([N+](=O)[O-])cccc3n2)cc1 | inconclusive: 92.6%
Cc1cc(NC(=O)c2cccc(S(=O)(=O)N3c4ccccc4CC3C)c2)no1 (stereo unspecified) | inconclusive: 74.2%
CC1C(=O)NN=C1C(=O)N/N=C/c1ccco1 (stereo unspecified) | inconclusive: 113%
CC(=O)Nc1cccc(-c2nn[nH]n2)c1 | inconclusive: 103%
Cc1cc(C)n2nc(SCCOc3ccccc3F)nc2n1 | inconclusive: 102%
CCOc1cc(C2NC(=S)NC(C)=C2C(=O)Nc2ccccc2)ccc1O (stereo unspecified) | inconclusive: 11.5%
O=C(Nc1cccc(-c2csc(Nc3ccc(Cl)cc3)n2)c1)c1ccccc1 | inconclusive: 93.7%
CCc1cccc2c(C(=O)CSc3nncn3C)c[nH]c12 | inconclusive: 106%
N#Cc1nc(/C=C/c2ccccc2)oc1NCCCN1CCOCC1 | inconclusive: 130%
COC(=O)c1ccccc1NC(=O)CN1CCC(C)CC1 | inconclusive: 86.9%
COc1cc(SC)ccc1C(=O)Nc1ccc(Br)cn1 | inconclusive: 157%
O=C(O)c1cc(N2C(=O)CCC2=O)ccc1NCc1cccnc1 | inconclusive: 103%
CCOC(=O)C(=O)C1C(=O)Nc2ccccc21 (stereo unspecified) | inconclusive: 93.7%
CCOC(=O)c1cnc(COc2ccccc2Cl)[nH]c1=O | inconclusive: -42.5%
CC(=O)Nc1ccc(/C=N/NC(=O)CCN2CCN(c3ccccc3)CC2)cc1 | inconclusive: 108%
c1cc2c(cc1OCCNC1CCCC1)CCC2 | inconclusive: 109%
c1ccc(-c2nc(-c3nccc4ccccc34)oc2-c2ccccc2)cc1 | inconclusive: 95.7%
COc1ccc(N)cc1S(=O)(=O)Nc1ccccc1Cl | inconclusive: 85.1%

SMILES | binding response (% of control)
COc1ccc2c(CC(=O)OCC(=O)Nc3cccc(S(N)(=O)=O)c3)coc2c1 | inconclusive: 90.6%
CC(=O)c1cc2c(cc1NC(=O)Nc1cccc(Cl)c1)OCCO2 | inactive: 101%
COc1ccc(CNC(=O)C2CC(c3ccccc3[N+](=O)[O-])=NO2)cc1 (stereo unspecified) | inactive: 99.8%
S=C(NCc1ccncc1)NC1CCCC1 | inactive: 102%
O=C(O)c1ccc(NC2CC(=O)N(Cc3ccccc3)C2=O)cc1 (stereo unspecified) | inconclusive: 90.1%
OC12CCCCC1C(c1ccc3c(c1)OCO3)N(Cc1ccccc1F)CC2 (stereo unspecified) | active: 158% [activator]
O=C(O)c1ccccc1-c1ccccc1C(=O)Nc1ccc2c(c1)[nH]c(=O)c1ccccc12 | inconclusive: 118%
NC(=O)C1CC(=O)N(c2ccc(OCc3ccccc3Cl)cc2)C1 (stereo unspecified) | inactive: 98%
O=C(Nc1ccc(Br)cn1)C1CCCN1S(=O)(=O)c1ccccc1 (stereo unspecified) | inactive: 94.5%
COCCNC(=O)C(c1ccc(Cl)cc1)N(CCOC)C(=O)CCC(=O)Nc1nccs1 (stereo unspecified) | inactive: 102%
O=C(CN1CCCc2ccccc21)N/N=C/c1c(O)ccc2ccccc12 | inactive: 99.1%
COc1cccc(NC(=O)C/C(C)=N/NC(=O)c2ccccc2Cl)c1 | inconclusive: 99.8%
CCOC(=O)c1c(NC(=O)CSc2nc3ccccc3o2)sc(C(C)=O)c1C | active: 2.59%
O=C(COC(=O)c1ccc(NS(=O)(=O)c2cccs2)cc1)NCc1ccco1 | inconclusive: 14.6%
O=C(c1ccc(C(F)(F)F)cc1)n1ccc(-c2cccs2)n1 | inconclusive: 73.2%
COc1ccc(CCN=C(N)NS(=O)(=O)c2ccc(F)cc2)cc1 | inactive: 89.5%
COc1ccccc1NC(=O)CN1CCSc2ccccc21 | inactive: 97.9%
COc1ccc(CN(C)CC(=O)Nc2sc3c(c2C#N)CCC3)c(OC)c1 | inactive: 97.5%
O=C(Nc1ccc(Cl)c(Cl)c1)Nc1ccc(Br)cc1F | inactive: 100%
Cn1cnnc1SCC(=O)Nc1ncc(C(F)(F)F)cc1Cl | inconclusive: 121%
COc1ccc(C(=O)NC(=S)NNC(=O)CNC(=O)C2CCCCC2)cc1 | inactive: 99.5%
CCCn1c(=O)c(/C(N)=N/O)nn(-c2cccc(C(F)(F)F)c2)c1=O | inconclusive: 48.6%
Cc1[nH]n(-c2ccccc2)c(=O)c1/C=N/N1CCOCC1 | inconclusive: 84.7%
CN1CCC(N(C)C(=O)c2cc(=O)c3ccccc3o2)CC1 | inactive: 99.3%

Another view of part of the listing above:
SMILES,binding response (% of control)
COc1ccc2c(CC(=O)OCC(=O)Nc3cccc(S(N)(=O)=O)c3)coc2c1,inconclusive: 90.6%
COc1ccc(CNC(=O)C2CC(c3ccccc3[N+](=O)[O-])=NO2)cc1 (stereo unspecified),inactive: 99.8%
S=C(NCc1ccncc1)NC1CCCC1,inactive: 102%
O=C(O)c1ccc(NC2CC(=O)N(Cc3ccccc3)C2=O)cc1 (stereo unspecified),inconclusive: 90.1%
OC12CCCCC1C(c1ccc3c(c1)OCO3)N(Cc1ccccc1F)CC2 (stereo unspecified),active: 158% [activator]
NC(=O)C1CC(=O)N(c2ccc(OCc3ccccc3Cl)cc2)C1 (stereo unspecified),inactive: 98%
COCCNC(=O)C(c1ccc(Cl)cc1)N(CCOC)C(=O)CCC(=O)Nc1nccs1 (stereo unspecified),inactive: 102%
COc1cccc(NC(=O)C/C(C)=N/NC(=O)c2ccccc2Cl)c1,inconclusive: 99.8%
CCOC(=O)c1c(NC(=O)CSc2nc3ccccc3o2)sc(C(C)=O)c1C,active: 2.59%
O=C(COC(=O)c1ccc(NS(=O)(=O)c2cccs2)cc1)NCc1ccco1,inconclusive: 14.6%
O=C(c1ccc(C(F)(F)F)cc1)n1ccc(-c2cccs2)n1,inconclusive: 73.2%
COc1ccc(CCN=C(N)NS(=O)(=O)c2ccc(F)cc2)cc1,inactive: 89.5%
COc1ccccc1NC(=O)CN1CCSc2ccccc21,inactive: 97.9%
COc1ccc(CN(C)CC(=O)Nc2sc3c(c2C#N)CCC3)c(OC)c1,inactive: 97.5%
O=C(Nc1ccc(Cl)c(Cl)c1)Nc1ccc(Br)cc1F,inactive: 100%
Cn1cnnc1SCC(=O)Nc1ncc(C(F)(F)F)cc1Cl,inconclusive: 121%
CCCn1c(=O)c(/C(N)=N/O)nn(-c2cccc(C(F)(F)F)c2)c1=O,inconclusive: 48.6%
CN1CCC(N(C)C(=O)c2cc(=O)c3ccccc3o2)CC1,inactive: 99.3%

Additional structures

SMILES | binding response (% of control)
CC(C)(C)NC(=O)c1ccc2c(c1)N(CC(=O)N1CCN(c3ccc(F)cc3)CC1)C(=O)C(C)(C)O2 | inactive: 96.3%
CCC(NC(=O)CCl)c1ccc(C)cc1 (stereo unspecified) | inactive: 96.9%
O=C(Nc1cccc2cccc(NC(=O)c3ccco3)c12)c1ccco1 | inactive: 94.9%
Nc1ncnc(Nc2cccc(F)c2)n1 | inconclusive: 201%
O=C1NC[C@@H](Cc2cccc3ccccc23)N(CC2CCCCC2)C1=O | inconclusive: 85.4%
Cn1cc([C@@H]2C[C@H]3CN(Cc4cccc(Cl)c4)C(=O)[C@]34CCCN24)c2ccccc21 | inactive: 101%
Cc1csc(NC(=O)c2ccncc2)n1 | inconclusive: 220%
CCS(=O)(=O)c1ccc(O)c(NC(=O)Nc2ccccc2OC)c1 | inconclusive: 110%
CC1CN(Cc2cnc(Cl)s2)CC(C)O1 (stereo unspecified) | inconclusive: 88.4%
Cc1cc(NC(=O)Nc2ccc(F)cc2F)n(C)n1 | inactive: 101%
Cc1nc(SCC(=O)O)c2oc3ccccc3c2n1 | inactive: 98.1%
O=C(CN1CCCc2ccccc21)NC(=O)NCc1ccccc1 | inconclusive: 83%
CCOC(=O)CC(NCc1ccc(OC)c(OCC)c1)c1ccc(C)cc1 (stereo unspecified) | inactive: 93.4%
O=C1NCCN/C1=C\C(=O)c1ccc(Br)cc1 | inconclusive: 141%
NC(=O)COC(=O)CSc1ccc2ccccc2c1 | inconclusive: 83%
CCOc1ccc2nc(NC(=O)NC3CCCCC3)sc2c1 | inconclusive: 102%
O=C(Nc1cc(Cl)ccc1N1CCOCC1)c1cccnc1Cl | inconclusive: 109%
O=C(NCCO)C(=O)c1c(-c2ccccc2)cc2ccccn12 | inconclusive: 95%
CC1(C)CN=C(N(C(=O)Nc2ccccc2)c2ccccc2F)S1 | inconclusive: 90.1%
CC(C)(C)C(=O)OC/C(N)=N/OC(=O)c1ccc(Cl)cc1 | inconclusive: 59.8%
NS(=O)(=O)c1cc(C(=O)NCCc2ccccn2)ccc1Cl | inconclusive: 32.6%
Cc1ccc2c(c1)C(=O)CC1(CCCCCC1)O2 | inconclusive: 103%
N#CC(C#N)=C/C=C(\Nc1ccc(Cl)cc1)c1ccc(Cl)cc1 | inconclusive: 117%
O=C(O)CC/C(=N\Nc1ccc([N+](=O)[O-])cc1S(=O)(=O)N1CCOCC1)c1cccs1 | inconclusive: 73.5%
